In the supplement of paper PMC10849652 one finds log2 fold change data, which are given here for twelve targets.

Chains of the proteins cited; added tags and fusions are not shown. Lines headed by an entry give the natural chain unless they say otherwise; changes in a name come on top.
UniProt Q9H5N1: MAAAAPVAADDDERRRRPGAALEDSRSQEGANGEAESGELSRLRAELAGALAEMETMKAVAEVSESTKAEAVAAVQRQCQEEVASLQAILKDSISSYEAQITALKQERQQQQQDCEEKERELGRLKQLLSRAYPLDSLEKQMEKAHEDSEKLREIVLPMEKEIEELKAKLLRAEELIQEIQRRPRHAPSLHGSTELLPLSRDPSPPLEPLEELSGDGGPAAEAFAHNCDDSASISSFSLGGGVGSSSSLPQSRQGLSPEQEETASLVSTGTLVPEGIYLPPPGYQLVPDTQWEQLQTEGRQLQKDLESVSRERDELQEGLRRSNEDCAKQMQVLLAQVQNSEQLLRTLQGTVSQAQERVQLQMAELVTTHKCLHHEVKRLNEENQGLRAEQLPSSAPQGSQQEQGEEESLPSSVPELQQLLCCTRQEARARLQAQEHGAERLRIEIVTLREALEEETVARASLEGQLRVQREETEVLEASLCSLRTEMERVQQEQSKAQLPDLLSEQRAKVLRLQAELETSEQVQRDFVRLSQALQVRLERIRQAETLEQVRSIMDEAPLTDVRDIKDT
UniProt Q15771: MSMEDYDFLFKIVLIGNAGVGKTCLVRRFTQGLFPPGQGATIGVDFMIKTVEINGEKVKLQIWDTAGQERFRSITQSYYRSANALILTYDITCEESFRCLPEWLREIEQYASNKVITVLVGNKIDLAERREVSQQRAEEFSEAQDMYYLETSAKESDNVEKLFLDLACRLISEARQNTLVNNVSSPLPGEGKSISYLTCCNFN
UniProt Q9H6Z4: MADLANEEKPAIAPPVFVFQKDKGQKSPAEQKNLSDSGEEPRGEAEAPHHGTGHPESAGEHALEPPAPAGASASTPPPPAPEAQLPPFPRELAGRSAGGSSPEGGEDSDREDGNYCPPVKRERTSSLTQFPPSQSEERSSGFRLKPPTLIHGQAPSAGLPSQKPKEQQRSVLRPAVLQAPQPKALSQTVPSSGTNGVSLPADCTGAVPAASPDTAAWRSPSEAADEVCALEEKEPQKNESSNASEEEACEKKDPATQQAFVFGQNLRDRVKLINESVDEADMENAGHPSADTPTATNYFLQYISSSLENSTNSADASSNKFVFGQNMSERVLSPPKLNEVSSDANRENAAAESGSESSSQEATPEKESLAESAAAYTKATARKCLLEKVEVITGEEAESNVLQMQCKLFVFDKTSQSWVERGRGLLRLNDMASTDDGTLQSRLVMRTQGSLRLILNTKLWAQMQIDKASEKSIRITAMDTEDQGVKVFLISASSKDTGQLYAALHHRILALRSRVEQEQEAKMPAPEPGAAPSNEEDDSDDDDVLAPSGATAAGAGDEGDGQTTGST
UniProt O75943: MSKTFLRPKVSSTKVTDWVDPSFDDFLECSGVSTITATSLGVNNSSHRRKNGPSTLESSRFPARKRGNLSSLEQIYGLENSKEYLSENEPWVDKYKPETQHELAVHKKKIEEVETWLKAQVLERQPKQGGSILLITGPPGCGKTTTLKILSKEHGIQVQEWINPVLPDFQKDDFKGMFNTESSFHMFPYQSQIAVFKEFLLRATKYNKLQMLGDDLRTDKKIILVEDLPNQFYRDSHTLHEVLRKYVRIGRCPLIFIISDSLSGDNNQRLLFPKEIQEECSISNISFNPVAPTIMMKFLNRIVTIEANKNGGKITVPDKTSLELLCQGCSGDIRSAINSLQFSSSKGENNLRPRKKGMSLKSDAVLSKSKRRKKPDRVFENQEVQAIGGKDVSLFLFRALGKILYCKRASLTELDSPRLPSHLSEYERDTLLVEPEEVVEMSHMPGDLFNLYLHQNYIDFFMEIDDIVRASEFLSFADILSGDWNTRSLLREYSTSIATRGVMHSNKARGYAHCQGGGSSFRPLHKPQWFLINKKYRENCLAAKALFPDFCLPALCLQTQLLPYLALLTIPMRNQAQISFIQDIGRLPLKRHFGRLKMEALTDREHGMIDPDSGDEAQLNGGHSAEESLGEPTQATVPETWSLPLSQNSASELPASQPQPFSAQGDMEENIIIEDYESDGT
UniProt A4D1S5: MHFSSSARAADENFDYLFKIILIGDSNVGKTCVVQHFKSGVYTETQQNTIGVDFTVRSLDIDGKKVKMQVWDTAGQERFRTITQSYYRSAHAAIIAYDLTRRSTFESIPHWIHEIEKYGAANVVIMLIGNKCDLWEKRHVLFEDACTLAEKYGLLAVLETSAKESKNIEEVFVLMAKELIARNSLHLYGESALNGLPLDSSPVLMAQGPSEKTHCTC
UniProt O95716: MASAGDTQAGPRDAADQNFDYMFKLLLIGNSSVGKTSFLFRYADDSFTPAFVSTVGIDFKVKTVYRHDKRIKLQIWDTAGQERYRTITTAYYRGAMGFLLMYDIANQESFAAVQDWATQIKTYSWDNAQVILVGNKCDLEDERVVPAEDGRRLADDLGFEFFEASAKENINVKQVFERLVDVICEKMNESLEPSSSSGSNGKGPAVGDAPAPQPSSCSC
UniProt O75771: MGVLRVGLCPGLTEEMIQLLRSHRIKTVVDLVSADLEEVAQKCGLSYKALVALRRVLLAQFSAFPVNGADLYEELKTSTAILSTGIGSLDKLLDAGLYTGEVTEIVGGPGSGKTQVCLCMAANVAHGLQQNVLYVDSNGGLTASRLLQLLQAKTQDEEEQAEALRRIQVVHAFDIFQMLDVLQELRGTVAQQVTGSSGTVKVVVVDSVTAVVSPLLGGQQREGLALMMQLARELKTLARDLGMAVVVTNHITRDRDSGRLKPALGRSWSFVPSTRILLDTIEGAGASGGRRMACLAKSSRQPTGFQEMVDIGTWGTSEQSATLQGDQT
UniProt Q86X27: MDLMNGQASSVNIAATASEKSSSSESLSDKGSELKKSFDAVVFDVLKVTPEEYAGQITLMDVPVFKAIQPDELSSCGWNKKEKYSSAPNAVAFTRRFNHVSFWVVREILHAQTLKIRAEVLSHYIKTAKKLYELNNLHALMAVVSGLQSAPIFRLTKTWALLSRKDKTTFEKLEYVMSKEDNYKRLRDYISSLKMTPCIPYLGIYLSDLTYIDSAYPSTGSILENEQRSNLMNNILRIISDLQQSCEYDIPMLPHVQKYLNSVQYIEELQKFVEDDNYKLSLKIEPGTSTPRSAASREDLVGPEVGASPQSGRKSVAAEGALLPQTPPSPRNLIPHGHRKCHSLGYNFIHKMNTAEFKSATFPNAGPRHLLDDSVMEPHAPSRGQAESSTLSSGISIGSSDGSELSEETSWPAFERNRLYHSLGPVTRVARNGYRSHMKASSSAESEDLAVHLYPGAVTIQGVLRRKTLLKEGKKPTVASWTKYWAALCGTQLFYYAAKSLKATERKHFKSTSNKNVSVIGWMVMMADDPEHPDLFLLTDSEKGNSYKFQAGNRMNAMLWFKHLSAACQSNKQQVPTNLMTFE
UniProt O75884: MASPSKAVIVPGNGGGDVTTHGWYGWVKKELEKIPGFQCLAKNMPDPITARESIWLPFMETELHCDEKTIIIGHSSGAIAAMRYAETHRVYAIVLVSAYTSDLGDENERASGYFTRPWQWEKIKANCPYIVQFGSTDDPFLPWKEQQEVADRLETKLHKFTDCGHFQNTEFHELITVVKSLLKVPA
UniProt Q96PK6: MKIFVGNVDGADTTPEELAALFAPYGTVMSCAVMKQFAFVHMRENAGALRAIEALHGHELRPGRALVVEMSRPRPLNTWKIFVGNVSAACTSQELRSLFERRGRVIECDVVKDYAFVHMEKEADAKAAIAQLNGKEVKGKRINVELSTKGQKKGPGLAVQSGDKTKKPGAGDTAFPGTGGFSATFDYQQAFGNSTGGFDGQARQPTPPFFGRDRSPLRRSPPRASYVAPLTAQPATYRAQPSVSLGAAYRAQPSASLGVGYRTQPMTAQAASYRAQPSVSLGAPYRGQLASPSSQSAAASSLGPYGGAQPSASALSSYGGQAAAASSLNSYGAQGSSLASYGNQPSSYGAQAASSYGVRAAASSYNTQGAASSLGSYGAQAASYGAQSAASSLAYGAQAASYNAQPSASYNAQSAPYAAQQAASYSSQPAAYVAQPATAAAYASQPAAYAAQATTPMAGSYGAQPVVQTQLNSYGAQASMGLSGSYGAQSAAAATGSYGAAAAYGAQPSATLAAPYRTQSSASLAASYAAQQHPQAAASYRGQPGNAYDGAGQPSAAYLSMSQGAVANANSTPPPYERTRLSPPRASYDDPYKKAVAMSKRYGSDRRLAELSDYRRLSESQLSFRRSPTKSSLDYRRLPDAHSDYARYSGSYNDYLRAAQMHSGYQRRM

Experiment in all cases: log2 fold change, soluble protein after heating vs DMSO (PISA); higher = thermal stabilisation; K562 cells, 10 uM, 30 min; active = over 0.2 and 3.5 SD of the protein, either way, in both replicates (recomputed)
Compound in test [1]: CC1=C(C=C(C=C1)NC(=O)C2=CC(=CC=C2)N(C)C)NC(=O)C3=CC=C(C=C3)O
A digest of the protocol: (§1)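 K562 cells at 2×10^6 cells/mL were given 10 μM compound for 30 min. Aliquots then went through 3 min of heating across 48°C-58°C, were pooled, and were extracted in PBS with 0.5% NP-40 at 4°C, and the supernatant after 21,000xg for 90 min was quantified by TMTpro 16plex LC-MS/MS with channel sums equalised. Thermal stability relative to control samples, from duplicates, is given as log2 fold change.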

Compound in test [2]: CCN(CC)Cc1ccc2cc(COC(=O)Nc3ccc(C(=O)NO)cc3)ccc2c1 [givinostat]
The essentials: as §1

Compound in test [3]: CCn1c(C(=O)N(C2CC2)C2CC2)cc2c3c(ncn3C)c(Nc3cc(C)n(C)n3)nc21
A digest of the protocol: as §1

Compound in test [4]: CC1=CC=C(C=C1)SC2=C3C=C(SC3=CN=C2)C(=O)N
A digest of the protocol: as §1

Compound in test [5]: CC1=NC(=CC=C1)C2=C(N=C(N2)C(C)(C)C)C3=CC4=NC=CN=C4C=C3
A digest of the protocol: as §1

Compound in test [6]: CCCCN(Cc1ccc(C(=O)NO)cc1)C(=O)Nc1ccccc1 [Nexturastat A]
The essentials:
as §1

Compound in test [7]: CCCS(=O)(=O)Nc1ccc(F)c(C(=O)c2c[nH]c3ncc(-c4ccc(Cl)cc4)cc23)c1F [vemurafenib]
A digest of the protocol: as §1

Compound in test [8]: CCCS(=O)(=O)Nc1ccc(F)c(C(=O)c2c[nH]c3ncc(Cl)cc23)c1F
A digest of the protocol:
as §1

Compound in test [9]: CCCc1cc(C)[nH]c(=O)c1CNC(=O)c1cc(-c2ccnc(N3CCN(C)CC3)c2)cc2c1cnn2C(C)C
A digest of the protocol: as §1

Compound in test [10]: CCN(CCCOc1ccc2c(Nc3cc(CC(=O)Nc4cccc(F)c4)[nH]n3)ncnc2c1)CCOP(=O)(O)O [barasertib]
The essentials:
as §1

Compound in test [11]: CC[C@@H]1C(=O)N(C)c2cnc(Nc3ccc(C(=O)NC4CCN(C)CC4)cc3OC)nc2N1C1CCCC1
The essentials: as §1

Compound in test [12]: CC[C@@H]1C(=O)N(C)c2cnc(Nc3ccc(C(=O)N[C@H]4CC[C@H](N5CCN(CC6CC6)CC5)CC4)cc3OC)nc2N1C(C)C [volasertib]
A digest of the protocol:
as §1

Compound in test [13]: CC[C@H](C)N1C=C(C2=C(C=C(C=C21)C3=CN=C(C=C3)N4CCNCC4)C(=O)NCC5=C(C=C(NC5=O)C)C)C
A digest of the protocol: as §1

Compound in test [14]: CC[C@H](C)[C@@H](C(=O)N[C@@H]([C@@H](C)O)C(=O)N[C@@H](CC(C)C)C(=O)[C@]1(CO1)C)NC(=O)[C@H]([C@@H](C)CC)N(C)C(=O)C [epoxomicin]
The essentials: as §1

Compound in test [15]: CCn1cc(-c2ccnc3[nH]c(-c4cccc(CN(C)C)c4)cc23)c(-c2ccc(NC(=O)N(C)C)cc2)n1
A digest of the protocol: as §1

Compound in test [16]: CN(C)CC(=O)Nc1ccc2[nH]c(=O)c3ccccc3c2c1
A digest of the protocol: as §1

Compound in test [17]: CN(CCOC1=CC=C(C=C1)C[C@H]2C(=O)NC(=O)S2)C3=CC=CC=N3 (racemic) [rosiglitazone]
The essentials:
as §1

Compound in test [18]: CN1C2=C(C3=C1C(=O)N(N=C3)CC4=CC(=CC=C4)N)SC(=C2)S(=O)C
The essentials: as §1

Compound in test [19]: CN1CCC(CNc2ccc3ncc(-c4cccc(OC(F)(F)F)c4)n3n2)CC1
The essentials:
as §1

Compound in test [20]: CC1=C(C=C(C=C1)NC(=O)C2=CC(=CC=C2)C(C)(C)C#N)NC3=CC4=C(C=C3)N=CN(C4=O)C
The essentials:
as §1

Some of the results follow.

On to RABEP2 (UniProt Q9H5N1), for which the log2 fold change in [1] was inactive: -0.089; in [2] it was inactive: 0.001; in test [3], inactive: -0.088.

With RAB30 (UniProt Q15771), the log2 fold change in test [1] is inactive: 0.006; in test [4], inactive: -0.046; in test [5] it was inactive: -0.001; in [6], inactive: -0.069; in test [7] it was inactive: 0.03; in [8], inactive: -0.077. Further, the log2 fold change in test [9] was inactive: 0; in test [2], inactive: 0.017; in test [10] it was inactive: -0.016; in [11] it was inactive: 0.073; in test [12] it was inactive: 0.065; in test [13] it was inactive: -0.042. For the same target, the log2 fold change in [14] was inactive: -0.067; in test [3], inactive: 0.043; in test [15], inactive: 0.104; in test [16], inactive: -0.05; in [17], inactive: -0.038; in test [18], inactive: 0.067. Moreover, the log2 fold change in test [19] was inactive: 0.158.

In the case of RABGAP1L isoform 5 (UniProt Q5R372), the log2 fold change was inactive: -0.106 in [20]; inactive: -0.047 in test [4]; inactive: -0.055 in test [5]; inactive: -0.009 in [6]; inactive: -0.016 in test [8]; inactive: -0.197 in test [9]. Further, the log2 fold change in test [2] is inactive: -0.013; in test [10], inactive: 0; in test [12], inactive: 0.01; in test [13] it was inactive: 0.074; in test [14], inactive: -0.085; in test [18], inactive: 0.059.

On to RACK1 (UniProt D6RHH4), for which the log2 fold change in [20] is inactive: -0.618; in test [4], inactive: -0.299; in test [6] it was inactive: 0.173; in test [7] it was inactive: -0.014; in [8], inactive: -0.286; in test [9] it was inactive: -0.139. The log2 fold change in test [2] was inactive: 0.027; in [10], inactive: 0.031; in test [11], inactive: 0.083; in [12], inactive: 0.075; in test [13] it was inactive: 0.051; in test [14], inactive: -0.203. The log2 fold change is inactive: -0.14 in test [3]; inactive: 0.223 in test [15]; inactive: -0.054 in [16]; inactive: 0.222 in test [17]; inactive: 0.01 in test [18]; inactive: -0.53 in [19].

As to RANBP3 isoform 2 (UniProt Q9H6Z4), the log2 fold change was inactive: 0 in [20]; inactive: -0.04 in test [9]; inactive: -0.014 in test [2]; inactive: -0.01 in test [10]; inactive: -0.012 in [11]; inactive: -0.069 in test [13]. Moreover, the log2 fold change was inactive: 0 in [3], inactive: 0.036 in [15], inactive: 0.044 in [17] and inactive: -0.014 in test [19].

Take RAD17 (UniProt O75943): the log2 fold change is inactive: -0.015 in test [5] and inactive: 0.196 in test [18].

Turning to RAB19 isoform 2 (UniProt A4D1S5), the log2 fold change was inactive: -0.251 in [20]; inactive: -0.057 in test [5]; inactive: -0.001 in test [6]; inactive: -0.091 in [10]; inactive: 0 in test [14]; inactive: -0.118 in test [17].

For RAB3D (UniProt O95716), the log2 fold change is inactive: 0.074 in test [1]; inactive: 0.036 in test [4]; inactive: -0.113 in test [7]; inactive: 0.094 in test [8]; inactive: 0.032 in test [9]; inactive: -0.08 in test [2]. Moreover, the log2 fold change in test [10] is inactive: 0.034; in test [11], inactive: 0.039; in test [12] it was inactive: 0.025; in test [13] it was inactive: 0.097; in [15], inactive: 0.041; in test [16] it was inactive: -0.098. The log2 fold change in test [18] is inactive: 0.103; in test [19] it was inactive: 0.129.

Turning to RAD51D (UniProt O75771), the log2 fold change in [1] is inactive: -0.078; in [4], inactive: 0.047; in [5] it was inactive: 0.088; in [7], inactive: -0.33; in [8], inactive: 0.037; in test [9], inactive: -0.034. In addition, the log2 fold change in [2] was inactive: -0.117; in [10] it was inactive: -0.023; in test [11], inactive: 0.042; in [12], inactive: -0.119; in test [13], inactive: 0.147; in test [3], inactive: 0. Further, the log2 fold change in [15] is inactive: 0.013; in test [16], inactive: -0.11; in test [17], inactive: -0.055; in test [18], inactive: 0.026; in test [19] it was inactive: -0.18.

For the target RALGPS2 (UniProt Q86X27), the log2 fold change in test [5] was inactive: -0.234; in [6], active: 1.06; in test [7], inactive: 0.023; in test [9], inactive: -0.128; in test [2] it was inactive: -0.147; in test [10] it was inactive: -0.116. Further, the log2 fold change in [11] was inactive: 0.139; in [14] it was inactive: -0.247; in test [15], inactive: -0.203; in [16], inactive: -0.059; in test [18], inactive: 0.137; in test [19], inactive: 0.082.

For RBBP9 (UniProt O75884), the log2 fold change is inactive: 0.07 in test [20]; inactive: 0.012 in [6]; inactive: 0.178 in [7]; inactive: -0.371 in test [9]; inactive: -0.017 in test [14]; inactive: -0.197 in test [16].

RBM14 (UniProt Q96PK6): the log2 fold change in [1] was inactive: 0.011; in [4], inactive: -0.1; in [5], inactive: -0.078; in test [7], inactive: 0.132; in [8], inactive: 0.299; in test [9] it was inactive: 0.041. Besides, the log2 fold change in test [2] is inactive: 0.178; in [10] it was inactive: 0.094; in test [11], inactive: 0.054; in [12] it was inactive: -0.128; in test [3], inactive: -0.178; in test [15], inactive: 0.043. Also, the log2 fold change is inactive: -0.099 in test [16], inactive: -0.057 in [17], inactive: 0.1 in test [18] and inactive: 0.108 in test [19].
